Laboratory results as given in PubChem BioAssay AID540256 (National Center for Advancing Translational Sciences (NCATS), 2011).
Values joined by “and” are separate entries in the source; they are usually repeats but may differ in a detail not shown here. Equal entries are not always repeated. About 3,700 (1.2%) of roughly 300,000 compounds were called active. Inconclusive results, whose numbers are uncertain, are shown with a selection of clear calls. Calls come from the whole dose curve; tested in HEK293 cells. Potencies beside an inconclusive call are fits to weak or partial responses and may not hold up.

Assay: qHTS for Inhibitors of binding or entry into cells for Lassa Virus; note: nearly all actives have a fitted effect of over 50% in size
Details: Lassa virus pseudotype entry inhibition, cell reporter; activity change, negative = inhibition: at 37.9 µM (top of the series) unless noted
% is set by controls: 0 for no effect and ±100 for the full control effect; potency is the fitted concentration of half-maximal effect.

Compound	Potency	activity change, negative = inhibition
CN(C)S(=O)(=O)N(CC(=O)N1CCOCC1)c1ccccc1	inconclusive: 20.6 µM [activator, single point]	
CCC(C)NC(=O)c1ccccc1NC(=O)C1CCN(S(=O)(=O)Cc2ccccc2)CC1 (configuration not stated)		inactive: -12.2% [at 46.1 µM]
CCOC(=O)CN1C(=O)NC(CCc2ccccc2)C(C(=O)OC)=C1C (configuration not stated)	inconclusive: 5.96 µM [inhibitor, single point]	
CCc1ccc2oc(C(=O)NCCc3ccc(OC)c(OC)c3)cc(=O)c2c1		inactive: -22% [at 46.1 µM]
O=C(c1ccc2c(c1)OCCO2)N(Cc1cccnc1)c1nc2ccc(Cl)cc2s1	inconclusive: 10 µM [activator, partial curve, poor fit]	
CCOC(=O)C1(Cc2ccccc2C(F)(F)F)CCN(Cc2ccc(COC)o2)CC1	inconclusive: 35.5 µM [inhibitor, partial curve, poor fit]	
CCN(CCNCC(O)COc1ccccc1C(C)C)c1cccc(C)c1 (configuration not stated)		inactive: -16.2%
COc1cccc(CN2C(=O)C3(SCC(=O)N3c3cc(C)cc(C)c3)c3ccccc32)c1 (configuration not stated)	inconclusive: 25.1 µM [inhibitor, single point]	
Cc1cccc(NC(=O)Cn2nnc3sc4c(c3c2=O)CC(C)(C)OC4)c1	inconclusive: 35.5 µM [inhibitor, single point]	
O=C(NC(=S)NC1CCCC1)c1ccccc1Br	inconclusive: 1.26 µM [inhibitor, single point]	
COc1ccc(CNc2nc(C)c([N+](=O)[O-])c(C)c2C#N)cc1		inactive: 11.6%
CCOc1ccccc1NC(=O)CCNC(=O)c1ccco1	inconclusive: 8.91 µM [activator, partial curve, poor fit]	
CCCCN1CC(COCc2ccccc2)Oc2cccc(Oc3ccc(F)cc3)c2S1(=O)=O (configuration not stated)	inconclusive: 2.23 µM [inhibitor, full curve, poor fit] and inconclusive: 2.5 µM [inhibitor, full curve, poor fit]	
CC(C)CCn1nnnc1C(c1ccc(F)cc1)N1CCN(C(=O)c2ccco2)CC1 (configuration not stated)	inconclusive: 0.316 µM [activator, partial curve, poor fit]	
CCOc1cccc(CNCCO)c1OCc1ccc(Cl)cc1Cl		inactive: -24.6%
CCOC(=O)CCCn1ncn2c(cc3occc32)c1=O	inconclusive: 6.51 µM [activator, partial curve, poor fit]	
COCCNC(=O)c1sc2ncn(CC(=O)N3CCCCC3)c(=O)c2c1C		inactive: 25.8%
CCCN1C(=O)/C(=C/c2ccc(OCc3ccc(C(=O)O)cc3)c(OC)c2)NC1=S	inconclusive: 3.55 µM [inhibitor, single point]	
CCN(Cc1nc(-c2ccc(OC)cc2)oc1C)S(=O)(=O)c1ccc(Cl)cc1	inconclusive: 35.5 µM [inhibitor, single point]	
COc1ccc(-c2nc(S(=O)(=O)c3ccccc3)c(N3CCCCC3)o2)cc1	inconclusive: 0.501 µM [inhibitor, full curve, poor fit]	
Cc1cccc(-n2ncc3c(N4CCCc5ccccc54)ncnc32)c1	inconclusive: 29.1 µM [inhibitor, single point]	

A different layout for some results above:
Compound | Potency | activity change, negative = inhibition
O=C(NC(=S)NC1CCCC1)c1ccccc1Br | inconclusive: 1.26 µM [inhibitor, single point] | 
COc1ccc(CNc2nc(C)c([N+](=O)[O-])c(C)c2C#N)cc1 |  | inactive: 11.6%
CCOc1ccccc1NC(=O)CCNC(=O)c1ccco1 | inconclusive: 8.91 µM [activator, partial curve, poor fit] | 

Later entries.

Compound	Potency	activity change, negative = inhibition
CC(C)(C)c1ccc(C(=O)Oc2ccc3c(c2)OCC3=O)cc1		inactive: -29.2%
COc1cc(-c2nnc3sc(-c4cccs4)nn23)cc(OC)c1OC	inconclusive: 8.2 µM [inhibitor, partial curve]	
Nc1ccccc1SCc1cn2ccccc2n1	inconclusive: 35.5 µM [inhibitor, single point] and inconclusive: 29.1 µM [inhibitor, single point]	
CC(=O)Nc1ccc(Nc2nc3ccc(C)cc3n3nnnc23)cc1	inconclusive: 35.5 µM [activator, single point]	
Cc1cc(NC(=O)CSc2nnc(-c3ccc(S(=O)(=O)N4CCCC4)cc3)n2C)no1		inactive: 2.8%
COc1cc(/C=N/Nc2nc3ccccc3s2)ccc1O	inconclusive: 35.5 µM [inhibitor, single point]	
Cc1ccc(S(=O)(=O)Cn2nnnc2C(C(C)C)N2CCN(Cc3ccco3)CC2)cc1 (configuration not stated)		inactive: -3.78%
COc1ccc(NS(=O)(=O)c2ccc3ccccc3c2)c2ncccc12	inconclusive: 11.2 µM [inhibitor, partial curve, poor fit]	
CCOc1ccc(C(=O)N2CCN(Cc3cc(=O)n4nc(-c5cccc(OC)c5)sc4n3)CC2)cc1		inactive: -14.6% [at 46.1 µM]
Clc1ccc2c(c1)C(C1=NCCN1)c1ccccc1CS2 (configuration not stated)	inconclusive: 6.51 µM [inhibitor, full curve]	
Clc1ccccc1CN(Cc1ccco1)Cc1nnnn1C1CCCC1		inactive: -8.23%
O=Cc1[nH]c2ccccc2c1N(C(=O)CCl)c1ccc([N+](=O)[O-])cc1	inconclusive: 35.5 µM [inhibitor, single point]	
CC1CCCCN1C(=O)CSc1nc2ccccc2nc1Cc1ccc(Cl)cc1 (configuration not stated)	inconclusive: 22.4 µM [inhibitor, partial curve, poor fit]	
Cc1ccc(S(=O)(=O)n2cnc3cc([N+](=O)[O-])ccc32)c(C)c1C	inconclusive: 1.26 µM [inhibitor, single point]	
CCc1ccccc1NC(=O)C(=O)c1cc(C)n(-c2ccccc2F)c1C	inconclusive: 12.6 µM [activator, partial curve, poor fit]	
CCN(CC)S(=O)(=O)c1ccc(NCC2COc3ccccc3O2)c([N+](=O)[O-])c1 (configuration not stated)	inconclusive: 10 µM [inhibitor, partial curve, poor fit]	
COc1ccc(S(=O)(=O)N2CCN=C2SCc2cccc(C)c2)cc1	inconclusive: 35.5 µM [inhibitor, single point]	
COc1ccc(/C=N\N=C(N)N)cc1	inconclusive: 0.562 µM [inhibitor, full curve, poor fit]	
CCOc1ccc(C(O)c2nccn2C)cc1 (configuration not stated)		inactive: 19.6%
COC(=O)c1sc(N)c(C(=O)OC)c1CSc1nnc(-c2ccccc2Cl)n1C		inactive: 22.3%
C[C@]12CC[C@@H]3c4ccc(O)cc4CC[C@H]3[C@@H]1CC[C@@H]2O	inconclusive: 25.9 µM [inhibitor, single point]	
